# Not every detail of the peptide structures is certain; ends, links or a residue may be inferred. Some compounds share one wording; it may come from a single statement. Where a SMILES comes first, the peptide text is derived from it. [ ]: non-standard residue; d: D form. Cit = NC(=O)NCCC[C@H](N)C(=O)O
# Columns and labels:
# [1] = tested on: B16 tumour cells; assay: Tumour challenge, B16 in C57BL/6 mice; format: in vivo, mouse
# Description: C57BL/6 were challenged with B16 tumour (parental non-transfected cell line). Four days later the C57BL/6 mice were immunised with Cyk8 8-26 cit peptide. Overall survival (A), tumour volume (B) at day 13 and tumour volume throughout the study (C), post tumour implant are shown for unimmunised control mice and mice immunised with Cyk8 8-26 cit peptide. Statistical differences between immunised and control mice were determined by Mantel-Cox test, p values are shown. The tumour volume medians and p values are shown as determined by Mann Whitney U test, n=10 in all group.
# (§1) For tumour challenge experiments, mice were challenged with 1×10^5 B16 HHDII/iDP4 cells subcutaneously on the right flank […] before primary immunisation (unless stated otherwise) and then immunised as described above. Tumour growth was monitored at 3-4 days intervals and mice humanely euthanised once tumour reached ≥10 mm in diameter.
# The effect of immunisation with Cyk8 8-26 cit on the growth of the mouse B16 melanoma cell line was assessed in C57BL/6. Mice were challenged with B16 tumour cells 3 days prior to immunisation with Cyk8 8-26 cit.
# [2] = tested on: C57BL/6 mice; assay: Ex vivo IFNγ ELISpot on splenocytes of peptide-immunised C57BL/6 mice; format: in vivo, mouse; conditions: summary statement
# [3] = tested on: B16 HHDII/iDP4 tumour cells; assay: Tumour challenge, B16 HHDII/iDP4 in HHDII/DP4 mice; format: in vivo; conditions: for survival advantage over unimmunised control mice: Mantel-Cox test
# Excerpt: HHDII/DP4 mice were challenged with B16 tumour with IFNγ inducible DP4. Four days later the HHDII/DP4 mice were immunised with Cyk8 371-388 cit or Cyk8 371-388 wt peptide on days 4, 11 and 18. Overall survival (A), tumour volume (B) at day 29 and tumour volume throughout the study (C), post tumour implant are shown for unimmunised control mice and mice immunised with either Cyk8 371-388 cit peptide or Cyk8 371-388 wt peptide. Statistical differences between immunised and control mice were determined by Mantel-Cox test, p values are shown. The tumour volume medians and p values are shown as determined by Mann Whitney U test, n=10 in all group.
# HHDII/DP4 mice were challenged with B16 tumour with IFNγ inducible DP4. Four days later the HHDII/DP4 mice were immunised with Cyk8 371-388 cit peptide on days 4, 11 and 18. Overall survival (A), tumour volume (B) at day 24 and tumour volume throughout the study (C), post tumour implant are shown for unimmunised control mice and mice immunised with Cyk8 101-120 cit peptide. Statistical differences between immunised and control mice were determined by Mantel-Cox test, p values are shown. The tumour volume medians and p values are shown as determined by Mann Whitney U test, n=10 in all group.
# as §1
# The effect of immunisation with Cyk8 371-388 (cit and wt) on the growth of the mouse B16 melanoma cell line transfected with IFNγ inducible human DP4 (iDP4) was assessed in HHDII/DP4 transgenic mice (FIG. 9A). […] Mice were challenged with B16 HHDII/iDP4 tumour cells 3 days prior to immunisation with Cyk8 371-388 wt or Cyk8 371-388 cit.
# The effect of immunisation with Cyk8 101-120 cit on the growth of the mouse B16 melanoma cell line transfected with IFNγ inducible human DP4 (iDP4) was assessed in HHDII/DP4 transgenic mice (FIG. 10A). […] Mice were challenged with B16 HHDII/iDP4 tumour cells 3 days prior to immunisation with the Cyk8 101-120 cit peptide.
compound,measurement,setting,value
"CC(C)[C@H](NC(=O)[C@H](CCCCN)NC(=O)[C@H](Cc1ccc(O)cc1)NC(=O)[C@H](CO)NC(=O)[C@@H](N)CCCCN)C(=O)N[C@@H](CO)C(=O)N[C@H](C(=O)N[C@@H](CO)C(=O)NCC(=O)N1CCC[C@H]1C(=O)N[C@@H](CCCNC(N)=O)C(=O)N[C@@H](C)C(=O)N[C@@H](Cc1ccccc1)C(=O)N[C@@H](CO)C(=O)N[C@@H](CO)C(=O)N[C@@H](CCCNC(N)=O)C(=O)N[C@@H](CO)C(=O)N[C@@H](Cc1ccc(O)cc1)C(=O)N[C@H](C(=O)O)[C@@H](C)O)[C@@H](C)O [Cyk8 8-26 cit, KSYKVSTSGP-cit-AFSS-cit-SYT] (H-KSYKVSTSGP[Cit]AFSS[Cit]SYT-OH)",survival advantage over unimmunised control mice,[1]; Mantel-Cox test,significant survival advantage
same,"tumour volume, median",[1]; day 13 post tumour implant,19 mm^3
same,"tumour volume, highest median for the duration of the study",[1]; on day 23,523 mm^3
same,CD4 T cell response in C57BL/6 mice,[2],potent CD4 T cell response
"CC[C@H](C)[C@H](NC(=O)[C@H](Cc1ccccc1)NC(=O)[C@H](CO)NC(=O)[C@H](C)NC(=O)[C@H](Cc1ccccc1)NC(=O)[C@@H](N)CCCCN)C(=O)N[C@@H](CC(=O)O)C(=O)N[C@@H](CCCCN)C(=O)N[C@H](C(=O)N[C@@H](CCCNC(N)=O)C(=O)N[C@@H](Cc1ccccc1)C(=O)N[C@@H](CC(C)C)C(=O)N[C@@H](CCC(=O)O)C(=O)N[C@@H](CCC(N)=O)C(=O)N[C@@H](CCC(N)=O)C(=O)N[C@@H](CC(N)=O)C(=O)N[C@@H](CCCCN)C(=O)N[C@@H](CCSC)C(=O)N[C@@H](CC(C)C)C(=O)N[C@@H](CCC(=O)O)C(=O)O)C(C)C [Cyk8 101-120 cit, KFASFIDKV-cit-FLEQQNKMLE] (H-KFASFIDKV[Cit]FLEQQNKMLE-OH)",survival advantage over unimmunised control mice,[3],significant survival advantage
same,"tumour volume, highest median for the duration of the study",[3]; on days 35 and 38,9 mm^3
"CC[C@H](C)[C@H](NC(=O)[C@H](CCC(=O)O)NC(=O)[C@@H](NC(=O)[C@H](CC(=O)O)NC(=O)[C@H](CC(C)C)NC(=O)[C@H](C)NC(=O)[C@H](CC(C)C)NC(=O)[C@H](CCCCN)NC(=O)[C@@H](NC(=O)[C@H](CC(N)=O)NC(=O)[C@H](CCSC)NC(=O)[C@H](CC(C)C)NC(=O)[C@H](CCC(=O)O)NC(=O)[C@H](CCC(N)=O)NC(=O)[C@H](Cc1ccc(O)cc1)NC(=O)[C@H](CCC(=O)O)NC(=O)[C@H](CCCNC(N)=O)NC(=O)[C@@H](N)CC(C)C)C(C)C)[C@@H](C)CC)C(=O)O [Cyk8 371-388 cit, L-cit-EYQELMNVKLALDIEI] (H-L[Cit]EYQELMNVKLALDIEI-OH)",survival advantage over unimmunised control mice,[3],significant survival advantage
"CC[C@H](C)[C@H](NC(=O)[C@H](CCC(=O)O)NC(=O)[C@@H](NC(=O)[C@H](CC(=O)O)NC(=O)[C@H](CC(C)C)NC(=O)[C@H](C)NC(=O)[C@H](CC(C)C)NC(=O)[C@H](CCCCN)NC(=O)[C@@H](NC(=O)[C@H](CC(N)=O)NC(=O)[C@H](CCSC)NC(=O)[C@H](CC(C)C)NC(=O)[C@H](CCC(=O)O)NC(=O)[C@H](CCC(N)=O)NC(=O)[C@H](Cc1ccc(O)cc1)NC(=O)[C@H](CCC(=O)O)NC(=O)[C@H](CCCNC(=N)N)NC(=O)[C@@H](N)CC(C)C)C(C)C)[C@@H](C)CC)C(=O)O [Cyk8 371-388 wt, LREYQELMNVKLALDIEI, reference compound] (H-LREYQELMNVKLALDIEI-OH)",survival advantage over unimmunised control mice,[3],significant survival advantage

# Reference: patent US20250269000A1, “ANTI-TUMOUR RESPONSES TO CYTOKERATINS” (SCANCELL LIMITED, priority 2020, published 2025)
